Results as given in patent publication US20210009982A1.
These are yes or no findings as the source states them, for the method shown. Some entries that bind do so weakly or less than the wild type. Where a sequence is shown, tags or fusion partners need not be part of it.

Target: T1, mini cellulose-binding protein A (mCbpA) (Clostridium cellulovorans) (UniProt P38058)
T1 sequence (looked up): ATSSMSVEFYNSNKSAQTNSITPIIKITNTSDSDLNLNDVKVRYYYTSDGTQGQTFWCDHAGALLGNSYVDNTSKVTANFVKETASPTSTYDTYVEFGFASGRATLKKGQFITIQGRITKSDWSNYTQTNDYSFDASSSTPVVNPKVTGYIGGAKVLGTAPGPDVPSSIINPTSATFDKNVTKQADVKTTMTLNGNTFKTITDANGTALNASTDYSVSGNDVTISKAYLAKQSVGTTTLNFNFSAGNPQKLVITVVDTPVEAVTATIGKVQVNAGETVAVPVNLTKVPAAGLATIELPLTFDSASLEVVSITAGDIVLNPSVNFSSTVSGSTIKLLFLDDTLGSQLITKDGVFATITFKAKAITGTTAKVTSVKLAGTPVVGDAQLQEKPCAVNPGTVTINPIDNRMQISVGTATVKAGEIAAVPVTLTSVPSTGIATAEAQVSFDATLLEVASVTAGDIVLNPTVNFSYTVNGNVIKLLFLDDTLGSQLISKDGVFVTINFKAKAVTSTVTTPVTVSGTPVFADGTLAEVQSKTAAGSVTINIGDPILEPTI
Assay: complex formed by mixing 10 nmol of each in 25 mM CaCl2 at 4 °C for 24 h; binding inferred from increased tagatose conversion activity, no direct binding assay

- binding: binds
B1: arabinose isomerase (LsAraA) linked with the dockerin module of the endo-β-1,4-glucanase B gene (enzyme, Clostridium cellulovorans, not shown: small tags and cut ends)
chain: SLSARVSFKKHVKKGVFIMLNTENYEFWFVTGSQSLYGEETLRSVEKDAKEIVEKLNASRQLPYPIVFKLVATTADNITKVMKEANYNDHVAGVITWMHTFSPAKNWIRGTKLLQKPLLHLATQFLNKIPYDTIDFDYMNLNQSAHGDREYAFINARLRKNNKIISGYWGDEDVQKAMAKWMDVAVAYNESFKIKVVTFADKMRNVAVTDGDKVEAQIKFGWTVDYWGVGDLVAEVNAVSEADIDAKYADLQKEYDFVEGQNTPEKFEHNVKYQIREYFGLKKFMDDRGYTAFTTNFEDLVGLEQLPGLAAQLLMAEGYGFAGEGDWKTAALDRLLKIMAHNEKTVFMEDYTLDLRQGHEAILGSHMLEVDPSIASDKPRVEVHPLDIGDKDDPARLVFTGMQGDAVDVTMADYGDEFKLMSYDVRGNKPEADTPHLPVAKQLWTPKQGLREGAVGWLTVGGGHHTVLSFAVDSEQLQDLSHLFDLTYVNIKTQTQTSYSLGDVNKDGKVNAIDYAVLKSILLGTNTNVDLSVSDMNKDGKVNALDLAVLKKMLLS
